Data published in patent US20260049102 (published 2026).
For part of these data: Some peptides are written in HELM: one residue between dots, names in brackets for other building blocks, links after the first $.

Legend:
Details in all cases: whole synthesis
[1] = general procedure: Fmoc solid-phase peptide synthesis; ctc resin loaded with Fmoc-D-Glu(OtBu)-OH
[2] = general procedure: Fmoc solid-phase peptide synthesis; Fmoc-Leu-Wang resin
[3] = general procedure: Fmoc solid-phase peptide synthesis; Fmoc-Gln(Trt)-Wang resin

## AQ-HSSKLQ↓LGGde
[1]
  isolated yield: 4%

## AQ-HSSKLQ↓L
[2]
  isolated yield: 54%

## PEPTIDE1{[AQ].H.S.S.K.L.Q}$$$$V2.0
[3]
  isolated yield: 68%
